# Data from PMC7819943, “Rice protein-binding microarrays: a tool to detect cis-acting elements near promoter regions in rice”.
# The chains behind the UniProt entries cited, without tags or fusion partners.
# UniProt Q0JBA9, entry or part of it: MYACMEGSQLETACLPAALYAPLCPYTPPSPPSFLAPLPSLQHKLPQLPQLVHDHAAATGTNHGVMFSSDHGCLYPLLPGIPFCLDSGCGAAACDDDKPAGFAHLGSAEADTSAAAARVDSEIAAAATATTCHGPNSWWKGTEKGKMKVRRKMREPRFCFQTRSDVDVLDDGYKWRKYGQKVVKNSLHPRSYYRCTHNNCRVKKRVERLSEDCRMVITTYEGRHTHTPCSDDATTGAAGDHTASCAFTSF
# The list shows a part of the results.
# Biological target: OsWRKY34 (Oryza sativa, UniProt Q0JBA9 1-250)
# Assay: protein-binding microarray (RPBM); PBS, 2% BSA, 51.3 ng/ul salmon testes DNA, 50 uM zinc acetate, 200 nM TF, 25 C, 1 h; high values mean tight binding
# Conditions: protein: recombinant; tags: N-terminal polyhistidine and DsRed monomer fusion (pET32a); label: CyDye5-dUTP incorporated in the synthesized complementary strand; 3' TTTTT single-stranded linker to array surface; dsDNA, one strand shown
# Method in brief: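 Transcription factors were made in E. coli BL21-CodonPlus as N-terminal fusions to a polyhistidine tag and DsRed, then purified on Ni–NTA. After primer extension with Cy5-dUTP and blocking with 2% BSA, a custom Agilent array was exposed for 1 h at 25 °C to 200 nM protein in PBS, 2% BSA, salmon testes DNA and 50 µM zinc acetate. Washed arrays were scanned on an Axon 4000B, and the binding signal is per-feature fluorescence intensity in arbitrary units.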
row,Sequence,binding signal
1,GCCGTGTGAATTTTTTTCTTATTCCTTTTCTTTTGAACGTCGGAGTCACCTAGTGCAG,9500 fluorescence intensity (a.u.)
2,CATCGTATTCCGCGTGCATGCTTTTCAAACTGTTAAACAGCGGAGTCACCTAGTGCAG,8240 fluorescence intensity (a.u.)
3,AGTAGATGGTGAACTTTGTATTAGATGGTTCCAGTTATCACGGAGTCACCTAGTGCAG,8640 fluorescence intensity (a.u.)
4,CAGCCTTAGGGGTTGCCCTTCGCGGTTCGGGCTGACGTCACGGAGTCACCTAGTGCAG,8090 fluorescence intensity (a.u.)
5,CTCCGCCGCCCCTATCACGCCTGCCGCTGCTGCTCCGCCGCGGAGTCACCTAGTGCAG,8540 fluorescence intensity (a.u.)
6,AAACCAGCTCGACGGACACCACTACCTCCGCCAGCTCAATCGGAGTCACCTAGTGCAG,8600 fluorescence intensity (a.u.)
7,CCCAAACAGCCACAGTTTGATACCGCTTCTTGTAGCATTTCGGAGTCACCTAGTGCAG,8680 fluorescence intensity (a.u.)
8,ACCAACATCTAACTGTAACTCAACGTCCGGATACGTTTCTCGGAGTCACCTAGTGCAG,8360 fluorescence intensity (a.u.)
9,TAGATGTCTCTCTCTTTTTTTTTGTGAGTTCGCTTACAAACGGAGTCACCTAGTGCAG,8500 fluorescence intensity (a.u.)
10,GCCTGGACAAGTCTAACTACAACGGTAAAACCATTATCCACGGAGTCACCTAGTGCAG,8150 fluorescence intensity (a.u.)
11,GTGCCATTCGCTGAGCTACAACATCATAGCGCCACTTACTCGGAGTCACCTAGTGCAG,10000 fluorescence intensity (a.u.)
12,TCCAGGACCTCCACCCATCCAGATCCACAGCAACCACCACCGGAGTCACCTAGTGCAG,9230 fluorescence intensity (a.u.)
13,CTCCTGTCAATTTCTATATATGCCTCTGCATGCTTTACCGCGGAGTCACCTAGTGCAG,12100 fluorescence intensity (a.u.)
14,GTTGATAAAACAAAATTTTGCTTTGTTGTTTTGGATAAGACGGAGTCACCTAGTGCAG,14000 fluorescence intensity (a.u.)
15,TATCCGTTTTATATTATAAAACTTTCTAGCATTGCCCACACGGAGTCACCTAGTGCAG,8540 fluorescence intensity (a.u.)
16,CTATGGCTTCCTAGGATTATACTATTGTCATATTTTTTTTCGGAGTCACCTAGTGCAG,10900 fluorescence intensity (a.u.)
17,CTCTACAATGGTTCTCCTACTACGTTTTTCGTTTCAAACTCGGAGTCACCTAGTGCAG,8950 fluorescence intensity (a.u.)
18,GAGTTTATACTCTTTCTTTCACCATGTTGACTTTTTGCACCGGAGTCACCTAGTGCAG,14100 fluorescence intensity (a.u.)
19,TTAGGAATGGAACAGACTGCAGAGTTTCTTGTTCAATATTCGGAGTCACCTAGTGCAG,10200 fluorescence intensity (a.u.)
20,GTCACCTTTGCACAACATGAGCCAATCCCGCGCCCTCTCACGGAGTCACCTAGTGCAG,8150 fluorescence intensity (a.u.)
21,CTTCCTACTGACCCAACTAACTTTATTATTTCTTCCTTCTCGGAGTCACCTAGTGCAG,8270 fluorescence intensity (a.u.)
22,TTATCTAGGCCTGCCATCTATCGGTATGATCTAAAGCTCTCGGAGTCACCTAGTGCAG,8170 fluorescence intensity (a.u.)
23,TTCCAGGCAGCCACTAATCCCAAACGCCTTTTTTTTTTCTCGGAGTCACCTAGTGCAG,11100 fluorescence intensity (a.u.)
24,CCACCTGGACCATGCATCCTCTCTCTATCTCTATATAAGCCGGAGTCACCTAGTGCAG,11600 fluorescence intensity (a.u.)
25,CAATTTTGAGAGCAGTTTTTGCTAACATGGCTCGTTGACCCGGAGTCACCTAGTGCAG,8460 fluorescence intensity (a.u.)
26,CTACATTGGCACTCGTTTTCAGGATGGCGATGGCATCAATCGGAGTCACCTAGTGCAG,10200 fluorescence intensity (a.u.)
27,GATGACACTAATCTCCATCCTAACACGCGTCGCTCTCACTCGGAGTCACCTAGTGCAG,9460 fluorescence intensity (a.u.)

row,Sequence,binding signal
1,TTTAGTTTATCACCTATCTACTATCATACGGCATTTTTAGCGGAGTCACCTAGTGCAG,8540 fluorescence intensity (a.u.)
2,TGTCACATCTATTCCAAGGATGTTTTTCTGCCCTACTTCTCGGAGTCACCTAGTGCAG,9060 fluorescence intensity (a.u.)
3,AATTTCCACTCTTTCAGTGCTTTAACCAATTTTGTCAAATCGGAGTCACCTAGTGCAG,11900 fluorescence intensity (a.u.)
4,AATTCTCTCATTTTCCACATTCACATTTCTTAAACGGTTACGGAGTCACCTAGTGCAG,10100 fluorescence intensity (a.u.)
5,CTCTCGCTCTTTTATTTTTTTTCCTTGTTTCCTTTCGTGTCGGAGTCACCTAGTGCAG,12100 fluorescence intensity (a.u.)
6,AGACTGATATGATAGTATTATTTTACCAAGCTAGTCCGGCCGGAGTCACCTAGTGCAG,8410 fluorescence intensity (a.u.)
7,CACATACTCCATCTGGTTCTATATTAATTGATGTTTTGGACGGAGTCACCTAGTGCAG,9810 fluorescence intensity (a.u.)
8,TATTGCATGTCCATATTCACTGTCCTAAATGGTGTTACTCCGGAGTCACCTAGTGCAG,8500 fluorescence intensity (a.u.)
9,TATTTTTTGCTATTATCTTTCGTGTAAGCTATTTCTCTATCGGAGTCACCTAGTGCAG,9170 fluorescence intensity (a.u.)
10,TACACGAGTCACGTCTCGCTCGGCTCACGCACGCACGAATCGGAGTCACCTAGTGCAG,9660 fluorescence intensity (a.u.)
11,AATACTTTCTTCCTTTTGCTCCTATACTGATATACTACTACGGAGTCACCTAGTGCAG,10900 fluorescence intensity (a.u.)
12,CTCCGGCTCCGATTCACCGACCGCATCAGCTACGTCTACCCGGAGTCACCTAGTGCAG,8860 fluorescence intensity (a.u.)
13,TTCTGGTTGGGGAAGGGTTAAAAGTCCACATATCTCACTACGGAGTCACCTAGTGCAG,12000 fluorescence intensity (a.u.)
14,ACCCACACACCCACACCCACACGTCAAAGACCCACGGTTTCGGAGTCACCTAGTGCAG,8480 fluorescence intensity (a.u.)
15,ACTCCTCCCATCCCTTGTACTACTGCCATTTTTTCAGTTTCGGAGTCACCTAGTGCAG,8750 fluorescence intensity (a.u.)
16,TCTATCGATTTCTCCCTTCCTTCTCTTTCTTCTTTCTTTCCGGAGTCACCTAGTGCAG,8500 fluorescence intensity (a.u.)
17,ACTCACAACCAAAACCATTGCCATTATTCTCACCATGCAACGGAGTCACCTAGTGCAG,8660 fluorescence intensity (a.u.)
18,GGAGGCACAGATGGCGTATACACATAAAGTATACCATACCCGGAGTCACCTAGTGCAG,8192 fluorescence intensity (a.u.)
19,TTTTCTTCCTTCTTTCTCCTGCTTCACGGGCCCGACCTATCGGAGTCACCTAGTGCAG,10100 fluorescence intensity (a.u.)
20,TGGCTAGGAGCCGGTTGGCATTGGGGTTAACCTGGTCTGACGGAGTCACCTAGTGCAG,8210 fluorescence intensity (a.u.)
21,GGCTAGAACTACTCCATCGGCTTGTCAGCCGATCGGCTGTCGGAGTCACCTAGTGCAG,9120 fluorescence intensity (a.u.)
22,CTCGAACCCAAACCGACTATCGTTCCTTCCGGCTGACTTACGGAGTCACCTAGTGCAG,9160 fluorescence intensity (a.u.)
23,CGGGGCTTGGGGTTTTGCGGGTTTGAGGAAGAAGAAGAGGCGGAGTCACCTAGTGCAG,12400 fluorescence intensity (a.u.)
24,TTGACTTTTGCTTGCACTGTTTGATTACTCGTCTTATTAACGGAGTCACCTAGTGCAG,8670 fluorescence intensity (a.u.)
25,TCTTTCTCACTCTAATCGCTAGTCTTCGCGGTCCATATCTCGGAGTCACCTAGTGCAG,10200 fluorescence intensity (a.u.)
26,TTCCGGTGGTGGCAAGGGCGGGCGGTGGCAGCGGAGGAGTCGGAGTCACCTAGTGCAG,11400 fluorescence intensity (a.u.)
27,CTTCCTCCGTTTCACAATGTAAGTCGTTCTAGCATTTTTCCGGAGTCACCTAGTGCAG,8110 fluorescence intensity (a.u.)

# Exported as tab-separated lines: part of the list above
row	Sequence	binding signal
6	AGACTGATATGATAGTATTATTTTACCAAGCTAGTCCGGCCGGAGTCACCTAGTGCAG	8410 fluorescence intensity (a.u.)
11	AATACTTTCTTCCTTTTGCTCCTATACTGATATACTACTACGGAGTCACCTAGTGCAG	10900 fluorescence intensity (a.u.)
13	TTCTGGTTGGGGAAGGGTTAAAAGTCCACATATCTCACTACGGAGTCACCTAGTGCAG	12000 fluorescence intensity (a.u.)
